PubChem BioAssay AID1508597, Cure First | 2020

Purpose: 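Survival screen with siRNA in ovarian cancer cells derived from patients, with or without rucaparib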 (primary screen)
Cells: human ovarian carcinoma lines grown from tumours: OCI-P5x (papillary serous) and OCI-C5x (clear cell)
Reagents: siRNA pool against human genes, 1.25 pmol siRNA per well
Timing: 72 h or 96 h, depending on the cell culture
Treatment: rucaparib 20 µM (about IC30) or vehicle, present until read-out
Rucaparib or vehicle: Rucaparib
Cell line: OCI-P5x (serous)
Read-out: 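Luminescent ATP-based viability assay read 72 or 96 h after transfection, depending on culture, given as normalised percent viability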
Scale: viability, normalised: higher = more viable cells remaining
Hit rule: 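a well counts as a hit if its normalised viability is under 80 percent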
Meaning of the calls: active = viability under 80%; inactive = viability 80% or more
This is an unselected part of the about 2,100 reagents, under one of the conditions tested. 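Calls flag viability under 80% in either arm, not effects specific to rucaparib; the reference for percent is not stated.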 A reagent listed more than once was tested more than once; the source does not tell the runs apart. Not given: the 100% reference.

target,technical replicate,"viability, normalised (%)",call
BCR (BCR activator of RhoGEF and GTPase),1,111,inactive
BCR (BCR activator of RhoGEF and GTPase),2,121,inactive
BCR (BCR activator of RhoGEF and GTPase),3,114,inactive
FANCD2 (FA complementation group D2),1,51.6,active
FANCD2 (FA complementation group D2),1,60.3,active
FANCD2 (FA complementation group D2),2,83.8,inactive
FANCD2 (FA complementation group D2),2,62.8,active
FANCD2 (FA complementation group D2),3,68.9,active
FANCD2 (FA complementation group D2),3,65.4,active
AKT3 (AKT serine/threonine kinase 3),1,92.8,inactive
AKT3 (AKT serine/threonine kinase 3),2,96.7,inactive
AKT3 (AKT serine/threonine kinase 3),3,103,inactive
EPHA8 (EPH receptor A8),1,82.2,inactive
EPHA8 (EPH receptor A8),2,73.7,active
EPHA8 (EPH receptor A8),3,65.5,active
"XPA (XPA, DNA damage recognition and repair factor)",1,78,active
"XPA (XPA, DNA damage recognition and repair factor)",2,74.7,active
"XPA (XPA, DNA damage recognition and repair factor)",3,76.3,active
PARP3 (poly(ADP-ribose) polymerase family member 3),1,43.4,active
PARP3 (poly(ADP-ribose) polymerase family member 3),1,55.6,active
PARP3 (poly(ADP-ribose) polymerase family member 3),2,59.9,active
PARP3 (poly(ADP-ribose) polymerase family member 3),2,45,active
PARP3 (poly(ADP-ribose) polymerase family member 3),3,39,active
PARP3 (poly(ADP-ribose) polymerase family member 3),3,49.1,active
TDRD5 (tudor domain containing 5),1,60.7,active
TDRD5 (tudor domain containing 5),2,56.8,active
TDRD5 (tudor domain containing 5),3,61.5,active
KDM3A (lysine demethylase 3A),1,47.4,active
KDM3A (lysine demethylase 3A),2,44.8,active
KDM3A (lysine demethylase 3A),3,39,active
DLG4 (discs large MAGUK scaffold protein 4),1,104,inactive
DLG4 (discs large MAGUK scaffold protein 4),1,52.1,active
DLG4 (discs large MAGUK scaffold protein 4),2,64.8,active
DLG4 (discs large MAGUK scaffold protein 4),2,83,inactive
DLG4 (discs large MAGUK scaffold protein 4),3,66.6,active
DLG4 (discs large MAGUK scaffold protein 4),3,62.1,active
SMARCA2,1,50.2,active
SMARCA2,2,62,active
SMARCA2,3,51,active
FAM91A1 (family with sequence similarity 91 member A1),1,46.3,active
FAM91A1 (family with sequence similarity 91 member A1),2,53.8,active
FAM91A1 (family with sequence similarity 91 member A1),3,57.5,active
POLR3K (RNA polymerase III subunit K),1,63.7,active
POLR3K (RNA polymerase III subunit K),2,52.3,active
POLR3K (RNA polymerase III subunit K),3,59.8,active
KMT5A (lysine methyltransferase 5A),1,47.3,active
KMT5A (lysine methyltransferase 5A),2,50.8,active
KMT5A (lysine methyltransferase 5A),3,40,active
H4C15 (H4 clustered histone 15),1,55.4,active
H4C15 (H4 clustered histone 15),2,63.7,active
H4C15 (H4 clustered histone 15),3,48.7,active
HERC3 (HECT and RLD domain containing E3 ubiquitin protein ligase 3),1,86.1,inactive
HERC3 (HECT and RLD domain containing E3 ubiquitin protein ligase 3),2,78.6,active
HERC3 (HECT and RLD domain containing E3 ubiquitin protein ligase 3),3,84.4,inactive
PBRM1 (polybromo 1),1,49.3,active
PBRM1 (polybromo 1),2,44.7,active
PBRM1 (polybromo 1),3,30.3,active

5 of these entries, set out differently:
target	technical replicate	viability, normalised (%)	call
SMARCA2	3	51	active
FAM91A1 (family with sequence similarity 91 member A1)	1	46.3	active
FAM91A1 (family with sequence similarity 91 member A1)	2	53.8	active
FAM91A1 (family with sequence similarity 91 member A1)	3	57.5	active
POLR3K (RNA polymerase III subunit K)	1	63.7	active
